# Test results as given in the supplement of paper PMC3334620.
# Over roughly 33,000 sequences, “E-score (-0.5 to 0.5)” has its median near -0.0059; the highest 2% begin near 0.26. The list shows a part of the results.
# Target: T1, Cin5 (UniProt P40917)
# T1 sequence: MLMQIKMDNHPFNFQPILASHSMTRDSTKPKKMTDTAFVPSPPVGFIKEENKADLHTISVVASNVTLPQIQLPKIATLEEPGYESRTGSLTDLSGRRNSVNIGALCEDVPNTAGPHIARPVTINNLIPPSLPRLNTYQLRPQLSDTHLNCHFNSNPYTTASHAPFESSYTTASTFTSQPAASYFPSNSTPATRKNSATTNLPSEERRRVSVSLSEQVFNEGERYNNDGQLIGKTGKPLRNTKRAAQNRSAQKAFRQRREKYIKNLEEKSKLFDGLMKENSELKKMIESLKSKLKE
# Experiment: PBM E-score (8-mer binding enrichment) (E-score (-0.5 to 0.5)); higher = stronger / more preferred TF binding
# Conditions: protein concentration: 100 nM; construct: GST-full length
# How it was run: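 Masliner-normalised scans of fluorescent anti-GST signal were the basis for scoring. That signal came from GST-tagged yeast transcription factors applied at about 100-200 nM to double-stranded universal all-10-mer Agilent arrays on fresh or once-stripped slides. Each ungapped eight-base word, pooled with its reverse complement, received an E-score from the Universal PBM Analysis Suite.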
row,Sequence,PBM E-score
1,CTCTGATC,-0.162
2,ATCCAAGA,0.0243
3,CATGCTGG,-0.136
4,ACTTCGAC,-0.0554
5,CGCCAAAA,0.0561
6,ACGACAGA,-0.0343
7,GACGAGCA,-0.0935
8,ACTCCGCG,0.0856
9,GTGGAATA,0.193
10,ACCGGCGC,0.0762
11,ATGTTGTG,0.151
12,CATTCTTA,0.155
13,AGGAACTG,-0.124
14,ACCGCCAA,-0.0388
15,TATTCCAA,0.0259
16,GTGGCGTA,-0.0406
17,TCGACCAA,-0.102
18,GCGTAGAC,-0.184
19,CTGTTACC,-0.121
20,CTACTTGA,0.069
21,ATGTGGAC,-0.0214
22,GCTCTAGA,-0.222
23,ATGGACGA,0.107
24,GGCAGCCA,-0.159
25,CCTTCTTA,-0.0338

row,Sequence,PBM E-score
1,CAGATCCC,-0.0247
2,ATAAGATC,0.0928
3,CACAACCG,0.222
4,GGACCGGA,-0.0265
5,AGGACCGG,-0.294
6,GAATATCA,0.174
7,CTGGACGC,-0.175
8,CGTGAAGA,-0.117
9,ACCAAAAC,0.127
10,ATGTCTCC,0.047
11,ACCGGGAG,-0.322
12,TAACACTA,0.202
13,CATTGTAG,0.143
14,CTTGTTCC,0.00268
15,GAACACTA,0.0146
16,ATTGTTTA,0.102
17,AGGTATTG,0.126
18,ACGACCTC,0.241
19,CCTCCAGC,-0.341
20,ATATACAT,0.16
21,GAAACTAC,0.031
22,CGTGTCAG,0.0706
23,AAATTCCT,-0.101
24,ATAGTTCG,0.111
25,CTGTGAAA,0.215

row,Sequence,PBM E-score
1,ACGCACGA,0.00465
2,CAGGCTAG,-0.311
3,ATAGTAAC,0.182
4,GGACGCAA,-0.0397
5,ATGCGTCC,-0.125
6,ACAGTCAA,-0.0239
7,CATTGTCG,-0.0797
8,TCAAAGCA,-0.023
9,AACACAAA,0.116
10,ACGTTACT,0.11
11,AGAGTAAA,0.145
12,GCGAGCTA,0.107
13,CGTGCCCC,-0.119
14,CGCTACGA,0.0464
15,CTGTGTGC,-0.243
16,CACAGGAG,-0.0423
17,CTCGAACC,-0.0919
18,TAACAGTA,0.135
19,AGGCCCAG,-0.236
20,GATAGCCA,-0.0246
21,CATGCTAC,-0.23
22,ACTATATA,0.309
23,CCCGACCC,-0.108
24,ACCGACAG,-0.155
25,ACCGAGTC,-0.264

# Part of the list above, tab-delimited:
row	Sequence	PBM E-score
14	CGCTACGA	0.0464
15	CTGTGTGC	-0.243
16	CACAGGAG	-0.0423
17	CTCGAACC	-0.0919
18	TAACAGTA	0.135

# (next part)

row,Sequence,PBM E-score
1,CTGATAAA,0.204
2,GCTTGCTA,-0.208
3,AGTTGAGA,-0.0533
4,CGTCAGTC,-0.0855
5,GGCGCCAA,0.0115
6,CGCACACA,-0.0387
7,AAGTTTCA,0.155
8,GGCGGCCA,-0.121
9,ATATTCGG,0.0247
10,ATTTACGC,0.0814
11,TATACTAA,0.0615
12,ACGTGCCA,-0.116
13,ATCGTCTG,-0.109
14,CCCGCGGG,0.171
15,GGACCGTA,-0.287
16,GCACAGCA,-0.0482
17,AACAACGT,0.0242
18,GCACAGAA,0.0345
19,ACTGGGAC,-0.0335
20,AGACGATC,-0.112
21,CATACCAA,0.0761
22,CTGCGTTC,0.0991
23,CCGGAGTA,0.0162
24,GGAAGGTA,-0.116
25,GAGTAACC,0.0406

row,Sequence,PBM E-score
1,GAGGGGCA,-0.283
2,CTGTATGC,-0.234
3,GAAAGATC,0.0615
4,GGGGGGAA,-0.354
5,CAATGAGG,-0.205
6,AGTGCTAT,0.0853
7,CAATAGGC,-0.0915
8,AAGGCGCA,0.0474
9,AGAGAAAC,0.00738
10,CCAATGCA,-0.00952
11,AACCGGCC,-0.206
12,GTGACTGA,0.125
13,GCGAGAAA,-0.0209
14,GTAAACGA,-0.0549
15,TAACGTCA,0.17
16,CTGGGGCA,-0.193
17,AGAACCCC,-0.0371
18,TGTATGAA,0.076
19,AACTTCAT,0.0957
20,GGGATTCA,-0.0282
21,CCTGTTCG,-0.124
22,CTCGTATA,-0.00647
23,ACTGCCTA,-0.0561
24,AAAAGTAA,0.243
25,CCACCTCG,-0.147

row,Sequence,PBM E-score
1,CCGAAAGG,-0.0852
2,CACGACGG,0.127
3,CGATAGCC,-0.0305
4,AGGTGAAT,0.099
5,ACATCCAG,0.00276
6,ATTGAACG,-0.00661
7,ATCGTTGC,-0.0956
8,CTGGTAAA,0.0543
9,GCTATCCC,-0.129
10,ACGCTTTG,0.0422
11,CAGCCTAG,0.00584
12,AAGCAAAT,0.0892
13,AGGACCAG,-0.0998
14,ATCACGAG,-0.0696
15,AGCGTAAG,0.0638
16,AGCCGCCT,-0.187
17,GGCACAGA,-0.0865
18,CGCGGACG,-0.00041
19,ACTCTGAT,0.0517
20,ACTGGCGC,0.0509
21,CCCTTCTA,-0.12
22,GCAGCGAC,-0.223
23,GGTTGCCA,-0.021
24,AGCCCCCG,-0.396
25,CGCCAACG,-0.1

row,Sequence,PBM E-score
1,ACAAGATA,0.136
2,GGACGGAA,0.0842
3,CATGTCGC,-0.00929
4,ACGTCCCA,-0.162
5,AGCTAGGC,-0.14
6,ACTGCGAA,-0.0346
7,AGGGTAGA,-0.207
8,GGTACGGA,0.0166
9,CTAAGCGA,0.0261
10,ATGACTAC,0.036
11,CCAGTAAG,-0.0267
12,GCGCAGCA,-0.288
13,GCTCCTAC,-0.183
14,CGCTTCTA,-0.0331
15,GCACACTA,0.0421
16,TGCTAGCA,0.00216
17,GCGTTTAA,-0.0302
18,CCGCCTTC,-0.192
19,AAGTGCGA,-0.137
20,CCCGAAGG,-0.0577
21,CCACTGTC,-0.162
22,AGTTAAAG,-0.037
